Where a name gives a salt, the structure may show the parent alone. Some results were stated once for a whole list of compounds, not compound by compound. The name of at least one read-out is uncertain. At least one structure is not confirmed: it was looked up by name or label, or the drawing left a doubt.
These compounds were tested on log phase, stationary phase and/or persister bacteria of the types Staph. aureus, MRSA, CNS, Streptococcus pneumoniae, Streptococcus pyogenes, Streptococcus … (assay: Biological tests: log kill against log phase, stationary phase and/or persister microorganisms). Conditions: at 20, or 5 μg/mL of test compound, any of the listed organisms.
Format: cell-based

Row | Compound | log kill
1 | Cc1cc(N2CCC(c3ccccc3)C2)c2cc(Cl)ccc2n1 (stereo not shown) [Example 1, 6-Chloro-2-methyl-4-(3-phenylpyrrolidin-1-yl)quinoline] | above 0.5
2 | Cc1cc(N2CCC(c3ccccc3)C2)c2cc(OCc3ccccc3)ccc2n1 (stereo not shown) [Example 2, 6-Benzyloxy-2-methyl-4-(3-phenylpyrrolidin-1-yl)quinoline] | above 0.5
3 | Cc1cc(N2CCC(c3ccccc3)C2)c2cc(OCc3cccnc3)ccc2n1.Cl (stereo not shown) [Example 3, 2-Methyl-4-(3-phenylpyrrolidin-1-yl)-6-(pyridin-3-ylmethoxy)quinoline hydrochloride] | above 0.5
4 | Cc1cc(N2CCC(c3ccccc3)C2)c2cc(OCc3ccc(S(C)(=O)=O)cc3)ccc2n1 (stereo not shown) [Example 4, 6-(4-Methanesulfonylbenzyloxy)-2-methyl-4-(3-phenylpyrrolidin-1-yl)quinoline] | above 0.5
5 | COc1ccc(COc2ccc3nc(C)cc(N4CCC(c5ccccc5)C4)c3c2)cc1 (stereo not shown) [Example 5, 6-(4-Methoxybenzyloxy)-2-methyl-4-(3-phenylpyrrolidin-1-yl)quinoline] | above 0.5
6 | Cc1cc(N2CCC(c3ccccc3)C2)c2cc(OCCc3ccccc3)ccc2n1.Cl (stereo not shown) [Example 6, 2-Methyl-6-phenethyloxy-4-(3-phenylpyrrolidin-1-yl)quinoline hydrochloride] | above 0.5
7 | Cc1cc(N2CCC(c3ccccc3)C2)c2cc(OCc3cc(C)on3)ccc2n1.Cl (stereo not shown) [Example 7, 2-Methyl-6-(5-methylisoxazol-3-ylmethoxy)-4-(3-phenylpyrrolidin-1-yl)quinoline hydrochloride] | above 0.5
8 | Cc1cc(N2CCC(Cc3ccccc3)C2)c2cc(Oc3ccccc3)ccc2n1.Cl (stereo not shown) [Example 8, 4-(3-Benzylpyrrolidin-1-yl)-2-methyl-6-phenoxyquinoline hydrochloride] | above 0.5
9 | COc1ccc(C2CCN(c3cc(C)nc4ccc(Oc5ccccc5)cc34)C2)cc1.Cl (stereo not shown) [Example 9, 4-[3-(4-Methoxyphenyl)pyrrolidin-1-yl]-2-methyl-6-phenoxyquinoline hydrochloride] | above 0.5
10 | Cc1cc(N2CCC(c3ccc(Cl)cc3)C2)c2cc(Oc3ccccc3)ccc2n1 (stereo not shown) [Example 10, 4-[3-(4-Chlorophenyl)pyrrolidin-1-yl]-2-methyl-6-phenoxyquinoline hydrochloride] | above 0.5
11 | Cc1cc(N2CCC(Nc3ccccc3)C2)c2cc(Oc3ccccc3)ccc2n1 (stereo not shown) [Example 11, [1-(2-Methyl-6-phenoxyquinolin-4-yl)pyrrolidin-3-yl]phenylamine] | above 0.5
12 | Cc1cc(N2CCC(c3ccccc3)C2)c2cc(NC(=O)c3ccccc3)ccc2n1.Cl (stereo not shown) [Example 12, N-[2-Methyl-4-(3-phenylpyrrolidin-1-yl)quinolin-6-yl]benzamide hydrochloride] | above 0.5
13 | Cc1cc(N2CCC(c3ccccc3)C2)c2cc(NC(=O)Cc3ccccc3)ccc2n1 (stereo not shown) [Example 13, N-[2-Methyl-4-(3-phenylpyrrolidin-1-yl)quinolin-6-yl]-2-phenylacetamide] | above 0.5
14 | Cc1cc(N2CCC(c3ccccc3)C2)c2cc(NC(=O)c3ccc(Cl)cc3)ccc2n1.Cl (stereo not shown) [Example 14, 4-Chloro-N-[2-methyl-4-(3-phenylpyrrolidin-1-yl)quinolin-6-yl]benzamide hydrochloride] | above 0.5
15 | COc1ccc(C(=O)Nc2ccc3nc(C)cc(N4CCC(c5ccccc5)C4)c3c2)cc1 (stereo not shown) [Example 15, 4-Methoxy-N-[2-methyl-4-(3-phenylpyrrolidin-1-yl)quinolin-6-yl]benzamide] | above 0.5
16 | Cc1cc(N2CCC(c3ccccc3)C2)c2cc(NC(=O)c3ccccc3C)ccc2n1 (stereo not shown) [Example 16, 2-Methyl-N-[2-methyl-4-(3-phenylpyrrolidin-1-yl)quinolin-6-yl]benzamide] | above 0.5
17 | Cc1cc(N2CCC(c3ccccc3)C2)c2cc(NC(=O)c3cnccn3)ccc2n1.Cl (stereo not shown) [Example 17, Pyrazine-2-carboxylic acid [2-methyl-4-(3-phenylpyrrolidin-1-yl)quinolin-6-yl]amide hydrochloride] | above 0.5
18 | Cc1cc(N2CCC(c3ccccc3)C2)c2cc(NC(=O)c3cn[nH]c3)ccc2n1.Cl (stereo not shown) [Example 18, 1H-Pyrazole-4-carboxylic acid [2-methyl-4-(3-phenylpyrrolidin-1-yl)quinolin-6-yl]amide hydrochloride] | above 0.5
19 | Cc1cc(N2CCC(c3ccccc3)C2)c2cc(NC(=O)c3ccco3)ccc2n1.Cl (stereo not shown) [Example 19, Furan-2-carboxylic acid [2-methyl-4-(3-phenylpyrrolidin-1-yl)quinolin-6-yl]amide hydrochloride] | above 0.5
20 | Cc1cc(N2CCC(c3ccccc3)C2)c2cc(NC(=O)c3cccnc3)ccc2n1.Cl (stereo not shown) [Example 20, N-[2-Methyl-4-(3-phenylpyrrolidin-1-yl)quinolin-6-yl]nicotinamide hydrochloride] | above 0.5

Row | Compound | log kill
21 | Cc1cc(N2CCC(c3ccccc3)C2)c2cc(NC(=O)c3cncn3C)ccc2n1.Cl (stereo not shown) [Example 21, 3-Methyl-3H-imidazole-4-carboxylic acid [2-methyl-4-(3-phenylpyrrolidin-1-yl)quinolin-6-yl]amide hydrochloride] | above 0.5
22 | Cc1cc(N2CCC(c3ccccc3)C2)c2cc(NC(=O)c3cc(C)[nH]n3)ccc2n1.Cl (stereo not shown) [Example 22, 5-Methyl-1H-pyrazole-3-carboxylic acid [2-methyl-4-(3-phenylpyrrolidin-1-yl)-quinolin-6-yl]amide hydrochloride] | above 0.5
23 | Cc1cc(N2CCC(c3ccccc3)C2)c2cc(NC(=O)c3ccnnc3)ccc2n1.Cl (stereo not shown) [Example 23, Pyridazine-4-carboxylic acid [2-methyl-4-(3-phenylpyrrolidin-1-yl)quinolin-6-yl]amide hydrochloride] | above 0.5
24 | COc1ccc(CC(=O)Nc2ccc3nc(C)cc(N4CCC(c5ccccc5)C4)c3c2)cc1 (stereo not shown) [Example 24, 2-(4-Methoxyphenyl)-N-[2-methyl-4-(3-phenylpyrrolidin-1-yl)quinolin-6-yl]acetamide] | above 0.5
25 | Cc1cc(N2CCC(c3ccccc3)C2)c2cc(NC(=O)Cc3ccc(Cl)cc3)ccc2n1 (stereo not shown) [Example 25, 2-(4-Chlorophenyl)-N-[2-methyl-4-(3-phenylpyrrolidin-1-yl)quinolin-6-yl]acetamide] | above 0.5
26 | Cc1cc(N2CCC(c3ccccc3)C2)c2cc(NC(=O)c3c(C)noc3C)ccc2n1.Cl (stereo not shown) [Example 26, 3,5-Dimethyl-isoxazole-4-carboxylic acid [2-methyl-4-(3-phenylpyrrolidin-1-yl)quinolin-6-yl]amide hydrochloride] | above 0.5
27 | Cc1cc(CC(=O)Nc2ccc3nc(C)cc(N4CCC(c5ccccc5)C4)c3c2)on1.Cl (stereo not shown) [Example 27, 2-(3-Methyl-isoxazol-5-yl)-N-[2-methyl-4-(3-phenylpyrrolidin-1-yl)quinolin-6-yl]acetamide hydrochloride] | above 0.5
28 | Cc1cc(N2CCC(c3ccccc3)C2)c2cc(NS(=O)(=O)c3ccccc3)ccc2n1.Cl (stereo not shown) [Example 28, N-[2-Methyl-4-(3-phenylpyrrolidin-1-yl)quinolin-6-yl]benzenesulfonamide hydrochloride] | above 0.5
29 | Cc1cc(N2CCC(c3ccccc3)C2)c2cc(NCc3ccccc3)ccc2n1 (stereo not shown) [Example 29, Benzyl-[2-methyl-4-(3-phenylpyrrolidin-1-yl)quinolin-6-yl]amine] | above 0.5
30 | COc1ccc(CNc2ccc3nc(C)cc(N4CCC(c5ccccc5)C4)c3c2)cc1 (stereo not shown) [Example 32, (4-Methoxybenzyl)-[2-methyl-4-(3-phenylpyrrolidin-1-yl)quinolin-6-yl]amine] | above 0.5
31 | Cc1cc(N2CCC(c3ccccc3)C2)c2cc(NCc3ccc(C#N)cc3)ccc2n1 (stereo not shown) [Example 33, 4-{[2-Methyl-4-(3-phenylpyrrolidin-1-yl)quinolin-6-ylamino]methyl}benzonitrile] | above 0.5
32 | Cc1cc(N2CCC(c3ccccc3)C2)c2cc(N3CCCC3=O)ccc2n1 (stereo not shown) [Example 34, 1-[2-Methyl-4-(3-phenylpyrrolidin-1-yl)quinolin-6-yl]pyrrolidin-2-one] | above 0.5
33 | Cc1cc(N2CCC(c3ccccc3)C2)c2cc(NC(=O)CCc3ccccc3)ccc2n1 (stereo not shown) [Example 35, N-[2-Methyl-4-(3-phenylpyrrolidin-1-yl)quinolin-6-yl]-3-phenyl propionamide] | above 0.5
34 | Cc1cc(N2CCC(c3ccccc3)C2)c2cc(NC(=O)c3cc(C)on3)ccc2n1 (stereo not shown) [Example 36, 5-Methyl-isoxazole-3-carboxylic acid [2-methyl-4-(3-phenylpyrrolidin-1-yl)-quinolin-6-yl]amide] | above 0.5
35 | Cc1cc(N2CCC(c3ccccc3)C2)c2cc(NC(=O)c3ccccn3)ccc2n1.Cl (stereo not shown) [Example 37, Pyridine-2-carboxylic acid [2-methyl-4-(3-phenylpyrrolidin-1-yl)quinolin-6-yl]amide hydrochloride] | above 0.5
36 | Cc1cc(N2CCC(Cc3ccccc3)C2)c2cc(NC(=O)c3ccccc3)ccc2n1 (stereo not shown) [Example 38, N-[4-(3-Benzylpyrrolidin-1-yl)-2-methylquinolin-6-yl]benzamide] | above 0.5
37 | Cc1cc(N2CCC(c3ccccc3)C2)c2cc(Oc3ccccc3)ccc2n1.Cl (stereo not shown) [Example 39, 2-Methyl-6-phenoxy-4-(3-phenylpyrrolidin-1-yl)quinoline hydrochloride] | above 0.5
38 | Cc1cc(N2CCC(c3ccccc3)C2)c2cc(O)ccc2n1 (stereo not shown) [Example 44, 2-Methyl-4-(3-phenylpyrrolidin-1-yl)quinolin-6-ol] | above 0.5
39 | Cc1cc(N2CCC(N)C2)c2cc(Oc3ccccc3)ccc2n1 (stereo not shown) [Example 45, 1-(2-Methyl-6-phenoxyquinolin-4-yl)pyrrolidin-3-ylamine] | above 0.5
40 | Cc1cc(N2CCC(c3ccccc3)C2)c2cc(N)ccc2n1 (stereo not shown) [Example 46, 2-Methyl-6-amino-4-(3-phenylpyrrolidin-1-yl)quinoline] | above 0.5
